These are yes or no findings as the source states them, for the method shown. In cells and extracts the contact can be indirect. Some results given as binding are weak or reduced against the parent protein; the word gives no strength.

Sequences of proteins named here, by UniProt entry; tags and fusion partners are left off.
UniProt P27361: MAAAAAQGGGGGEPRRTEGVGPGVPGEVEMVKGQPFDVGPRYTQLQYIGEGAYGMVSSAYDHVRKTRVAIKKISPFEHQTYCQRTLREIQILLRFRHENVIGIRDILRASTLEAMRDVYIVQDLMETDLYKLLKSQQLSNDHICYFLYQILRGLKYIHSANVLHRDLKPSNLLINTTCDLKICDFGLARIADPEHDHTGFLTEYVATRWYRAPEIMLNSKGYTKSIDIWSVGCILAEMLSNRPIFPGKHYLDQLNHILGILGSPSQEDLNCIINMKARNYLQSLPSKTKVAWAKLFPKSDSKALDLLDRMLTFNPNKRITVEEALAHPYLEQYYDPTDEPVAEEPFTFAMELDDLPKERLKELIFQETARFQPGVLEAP
UniProt P28482: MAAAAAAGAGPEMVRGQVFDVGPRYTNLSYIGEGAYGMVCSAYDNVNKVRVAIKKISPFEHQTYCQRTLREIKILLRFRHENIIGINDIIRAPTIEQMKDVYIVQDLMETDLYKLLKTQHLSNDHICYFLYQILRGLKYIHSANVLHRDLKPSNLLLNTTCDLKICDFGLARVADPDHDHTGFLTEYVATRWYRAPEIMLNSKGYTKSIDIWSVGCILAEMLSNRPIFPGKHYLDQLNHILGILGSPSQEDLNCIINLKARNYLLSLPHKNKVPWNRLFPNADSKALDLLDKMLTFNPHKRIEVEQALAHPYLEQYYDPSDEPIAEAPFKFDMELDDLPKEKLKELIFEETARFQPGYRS

Experiment in all cases: co-IP; forward and reciprocal co-IP of endogenous symplekin and ERK1/2 in Caco-2 cells with or without EGF (200 ng/ml); blots with antibodies against symplekin or ERK1/2; IP buffer 20 mM HEPES pH 8.0, 1.5 mM MgCl2, 0.2 mM EDTA, 0.5% NP40, 10% glycerol
For test [1], the target named is T1, symplekin (human (endogenous in HT-29 and Caco-2)) (UniProt Q92797).
T1 sequence: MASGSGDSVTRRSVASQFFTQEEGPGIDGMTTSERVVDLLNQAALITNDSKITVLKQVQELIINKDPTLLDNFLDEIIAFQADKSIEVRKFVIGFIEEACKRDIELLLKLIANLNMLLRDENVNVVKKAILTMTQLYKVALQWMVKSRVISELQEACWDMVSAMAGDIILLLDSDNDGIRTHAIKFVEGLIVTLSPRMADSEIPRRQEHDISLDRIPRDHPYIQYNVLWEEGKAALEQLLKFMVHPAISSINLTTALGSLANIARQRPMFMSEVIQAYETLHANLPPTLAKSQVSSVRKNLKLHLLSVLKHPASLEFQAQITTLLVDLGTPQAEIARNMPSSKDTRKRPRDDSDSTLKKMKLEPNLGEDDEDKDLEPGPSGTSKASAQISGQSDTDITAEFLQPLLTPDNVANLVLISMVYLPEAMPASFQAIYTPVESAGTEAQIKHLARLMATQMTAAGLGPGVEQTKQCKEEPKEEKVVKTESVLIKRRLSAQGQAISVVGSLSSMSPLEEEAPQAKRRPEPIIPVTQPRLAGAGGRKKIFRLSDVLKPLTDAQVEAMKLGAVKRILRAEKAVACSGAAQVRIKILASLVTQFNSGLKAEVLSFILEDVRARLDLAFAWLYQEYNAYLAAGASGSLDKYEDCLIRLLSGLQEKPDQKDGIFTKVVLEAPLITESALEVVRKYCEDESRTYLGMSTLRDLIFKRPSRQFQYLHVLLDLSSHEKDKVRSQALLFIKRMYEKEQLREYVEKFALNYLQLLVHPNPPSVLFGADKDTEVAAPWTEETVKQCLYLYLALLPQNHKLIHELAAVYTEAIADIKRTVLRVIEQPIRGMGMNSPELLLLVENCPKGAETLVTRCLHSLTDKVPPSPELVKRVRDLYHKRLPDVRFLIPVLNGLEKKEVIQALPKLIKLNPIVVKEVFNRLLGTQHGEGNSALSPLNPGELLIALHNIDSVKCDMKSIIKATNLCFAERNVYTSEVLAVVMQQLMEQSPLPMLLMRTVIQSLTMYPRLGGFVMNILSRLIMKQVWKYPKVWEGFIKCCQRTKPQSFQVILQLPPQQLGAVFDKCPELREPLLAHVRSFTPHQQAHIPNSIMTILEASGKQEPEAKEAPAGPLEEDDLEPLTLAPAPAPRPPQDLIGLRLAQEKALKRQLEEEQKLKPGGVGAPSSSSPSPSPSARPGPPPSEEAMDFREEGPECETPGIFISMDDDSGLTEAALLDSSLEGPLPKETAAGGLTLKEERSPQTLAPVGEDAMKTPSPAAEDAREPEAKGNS

For test [2], the target named is extracellular signal-regulated kinase 1 (ERK1 of ERK1/2) (human (endogenous in Caco-2)) (UniProt P27361).
Test [3] deals with extracellular signal-regulated kinase 2 (ERK2 of ERK1/2) (human (endogenous in Caco-2)) (UniProt P28482).

As to “extracellular signal-regulated kinase 1 (ERK1 of ERK1/2) (from UniProt P27361 1-379) (enzyme)”, the binding result in test [1] was “binds”.
Take “extracellular signal-regulated kinase 2 (ERK2 of ERK1/2) (from UniProt P28482 1-360) (enzyme)”: the binding result in test [1] was “binds”.

B1: symplekin (protein, UniProt Q92797 1-1274)
chain: MASGSGDSVTRRSVASQFFTQEEGPGIDGMTTSERVVDLLNQAALITNDSKITVLKQVQELIINKDPTLLDNFLDEIIAFQADKSIEVRKFVIGFIEEACKRDIELLLKLIANLNMLLRDENVNVVKKAILTMTQLYKVALQWMVKSRVISELQEACWDMVSAMAGDIILLLDSDNDGIRTHAIKFVEGLIVTLSPRMADSEIPRRQEHDISLDRIPRDHPYIQYNVLWEEGKAALEQLLKFMVHPAISSINLTTALGSLANIARQRPMFMSEVIQAYETLHANLPPTLAKSQVSSVRKNLKLHLLSVLKHPASLEFQAQITTLLVDLGTPQAEIARNMPSSKDTRKRPRDDSDSTLKKMKLEPNLGEDDEDKDLEPGPSGTSKASAQISGQSDTDITAEFLQPLLTPDNVANLVLISMVYLPEAMPASFQAIYTPVESAGTEAQIKHLARLMATQMTAAGLGPGVEQTKQCKEEPKEEKVVKTESVLIKRRLSAQGQAISVVGSLSSMSPLEEEAPQAKRRPEPIIPVTQPRLAGAGGRKKIFRLSDVLKPLTDAQVEAMKLGAVKRILRAEKAVACSGAAQVRIKILASLVTQFNSGLKAEVLSFILEDVRARLDLAFAWLYQEYNAYLAAGASGSLDKYEDCLIRLLSGLQEKPDQKDGIFTKVVLEAPLITESALEVVRKYCEDESRTYLGMSTLRDLIFKRPSRQFQYLHVLLDLSSHEKDKVRSQALLFIKRMYEKEQLREYVEKFALNYLQLLVHPNPPSVLFGADKDTEVAAPWTEETVKQCLYLYLALLPQNHKLIHELAAVYTEAIADIKRTVLRVIEQPIRGMGMNSPELLLLVENCPKGAETLVTRCLHSLTDKVPPSPELVKRVRDLYHKRLPDVRFLIPVLNGLEKKEVIQALPKLIKLNPIVVKEVFNRLLGTQHGEGNSALSPLNPGELLIALHNIDSVKCDMKSIIKATNLCFAERNVYTSEVLAVVMQQLMEQSPLPMLLMRTVIQSLTMYPRLGGFVMNILSRLIMKQVWKYPKVWEGFIKCCQRTKPQSFQVILQLPPQQLGAVFDKCPELREPLLAHVRSFTPHQQAHIPNSIMTILEASGKQEPEAKEAPAGPLEEDDLEPLTLAPAPAPRPPQDLIGLRLAQEKALKRQLEEEQKLKPGGVGAPSSSSPSPSPSARPGPPPSEEAMDFREEGPECETPGIFISMDDDSGLTEAALLDSSLEGPLPKETAAGGLTLKEERSPQTLAPVGEDAMKTPSPAAEDAREPEAKGNS
On to B1, for which the binding result in test [2] and in test [3] was “binds” in each case.

Values taken from publication PMC5476558.
